At least one structure is not confirmed: it was looked up by name or label, or the drawing left a doubt.
Test system: Q-hM3D mice
[1] = posterior distribution of the difference

## C[N+]1([O-])CCN(C2=Nc3cc(Cl)ccc3Nc3ccccc32)CC1 [CNO, clozapine N-oxide]
In QIH, TA=16, 20, 24° C.
  H (feedback gain of heat generation), 89% HPDI: 0.181, 0.369
  TR (theoretical setpoint temperature), 89% HPDI: 26.83, 29.13
[1]
  difference of G, normal vs QIH, 89% HPDI: −0.0040, 0.0348
  difference of H (ΔH), 89% HPDI: 3.17, 8.48
  difference of TR (ΔTR), 89% HPDI: 7.18, 9.57
